The values below come from PMC12512393.

By UniProt entry, the sequences of proteins in these tests, tags left out. Residues count along the entry.
UniProt P16410, residues 36-223: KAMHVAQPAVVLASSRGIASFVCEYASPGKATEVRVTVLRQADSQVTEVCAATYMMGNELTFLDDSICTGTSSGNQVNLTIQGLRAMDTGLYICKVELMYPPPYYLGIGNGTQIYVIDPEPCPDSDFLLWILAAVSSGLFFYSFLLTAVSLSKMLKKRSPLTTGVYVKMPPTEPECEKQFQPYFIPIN
UniProt Q03135: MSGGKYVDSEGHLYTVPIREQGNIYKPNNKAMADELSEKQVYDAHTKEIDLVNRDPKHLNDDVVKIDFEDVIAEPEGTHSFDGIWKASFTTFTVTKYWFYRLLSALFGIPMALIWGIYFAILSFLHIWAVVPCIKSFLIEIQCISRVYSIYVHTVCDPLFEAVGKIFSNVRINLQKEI

These are yes or no findings as the source states them, for the method shown. Binding seen in cells or lysates may run through a third protein. Some results given as binding are weak or reduced against the parent protein; the word gives no strength.

The target of this test is Cytotoxic T Lymphocyte Antigen 4 (human (endogenous in Tregs from patients and healthy donors)) (UniProt P16410). Briefly: co-IP; lysates of Tregs from RA patients and HCs precleared, incubated with anti-CTLA4 (sc-18829) and protein A/G PLUS-Agarose at 4 °C for 12 h; SDS-PAGE and blot with caveolin-1 antibody; also RA Tregs treated with vehicle or Genipin 25 μM (Fig. 5E) and HC Tregs transfected with control or mCherry-UCP2 (Fig. 5Q).

Turning to Caveolin-1 (from UniProt Q03135 1-178), the binding result is reported as “binds”.
